Experimental data published in paper doi:10.1101/2023.02.27.530350 (bioRxiv, 2023).
Read-outs that look alike come from different tables or passages of the source. No constants are given. Whether binding was seen depends on the method and setting. In cells and extracts the contact can be indirect. Some results given as binding are weak or reduced against the parent protein; the word gives no strength. For part of these data: Tags and fused reporters may be left off the sequences shown.

Protein sequences, listed by entry. Tags and fused reporters are not part of them. Lines headed by an entry give the natural chain unless they say otherwise; changes in a name come on top.
UniProt Q2FKN8, whole entry: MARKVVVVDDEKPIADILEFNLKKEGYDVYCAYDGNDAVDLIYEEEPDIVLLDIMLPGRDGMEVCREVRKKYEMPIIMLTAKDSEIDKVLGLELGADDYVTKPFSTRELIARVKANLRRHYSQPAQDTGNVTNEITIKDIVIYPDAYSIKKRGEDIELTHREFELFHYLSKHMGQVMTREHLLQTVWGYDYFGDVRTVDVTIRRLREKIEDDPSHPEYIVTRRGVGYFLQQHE

Experiments:
Test in all cases: split reporter
[1] = molecular target: WalK_(G223D)-LgBIT (Staphylococcus aureus) (UniProt Q2FKN7)
[2] = molecular target: WalK_(T389A)-LgBIT (Staphylococcus aureus) (UniProt Q2FKN7)
[3] = molecular target: T1, WalK-LgBIT (native WalK, sensor histidine kinase) (Staphylococcus aureus) (UniProt Q2FKN7)
T1 sequence: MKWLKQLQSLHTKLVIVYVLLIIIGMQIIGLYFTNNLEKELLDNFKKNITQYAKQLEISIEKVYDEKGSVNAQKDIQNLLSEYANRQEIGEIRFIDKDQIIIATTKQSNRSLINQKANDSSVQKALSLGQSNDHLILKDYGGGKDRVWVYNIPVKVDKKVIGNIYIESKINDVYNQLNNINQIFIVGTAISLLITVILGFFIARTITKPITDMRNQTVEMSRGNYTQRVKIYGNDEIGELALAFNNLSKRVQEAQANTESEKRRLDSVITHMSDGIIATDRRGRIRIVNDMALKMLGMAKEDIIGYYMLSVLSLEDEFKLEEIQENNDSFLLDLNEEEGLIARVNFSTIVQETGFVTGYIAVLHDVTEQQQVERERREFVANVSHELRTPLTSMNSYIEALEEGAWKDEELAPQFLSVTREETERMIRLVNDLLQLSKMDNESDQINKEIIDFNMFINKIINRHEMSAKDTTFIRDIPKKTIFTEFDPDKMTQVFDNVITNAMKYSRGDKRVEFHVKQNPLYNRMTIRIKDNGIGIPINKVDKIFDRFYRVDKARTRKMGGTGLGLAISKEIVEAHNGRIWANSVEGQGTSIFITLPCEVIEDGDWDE

[4] = molecular target: WalK_(Y32C)-LgBIT (Staphylococcus aureus) (UniProt Q2FKN7)
[5] = molecular target: WalK_(G223D)-LgBIT (Staphylococcus aureus) (UniProt Q2FKN7); remark: listed apart in the source
[6] = molecular target: T1, WalK-LgBIT (native WalK, sensor histidine kinase) (Staphylococcus aureus); remark: listed apart in the source

Substance | binding [1] | binding [2] | binding [3] | binding [4] | binding [5] | binding [6]
WalR-SmBIT (native WalR, DNA binding response regulator) (from UniProt Q2FKN8 1-233) | binds | binds | binds | binds | binds | –
WalR_(D53E)-SmBIT (from UniProt Q2FKN8 1-233) | – | – | binds | – | – | –
WalR_(T101A)-SmBIT (from UniProt Q2FKN8 1-233) | – | – | – | – | – | binds
WalR_(D53A)-SmBIT (from UniProt Q2FKN8 1-233) | – | – | binds | – | – | binds
